# Data as given in PubChem BioAssay AID652272 (Drosophila RNAi Screening Center, 2013).
# Screen: 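Finding fly genes that regulate Hedgehog signal transduction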 (primary screen)
# System: Drosophila clone 8 (Cl8) cells
# Reagents: long dsRNA against Drosophila genes
# Measurement: 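Firefly light from a Hedgehog-responsive ptc promoter reporter and Renilla reference light, both read on a plate reader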
# Scale: firefly Hh reporter signal: higher = more ptc reporter light; Renilla reference signal: higher = more Renilla control light
# Rule for the call: 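Called a hit if the two-replicate mean z-score lies below -2 or above +3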
# Calls: active = hit: reporter lowered or raised; inactive = not a hit
# The deposit covers about 21,000 reagents; below is a random part of those with a known target gene and a result. Of all reagents, 503 (2.4%) were called active. 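Raw plate light values, not normalised; calls rest on replicate z-scores that were not deposited; hits include reporter decreases as well as increases.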 A number with no mark means an inactive call. A plus sign joins genes that one reagent is predicted to hit. Not given: the amount of reagent, the time to read-out.
Gene,dsRNA,"firefly Hh reporter signal, replicate 1","firefly Hh reporter signal, replicate 2","firefly Hh reporter signal, replicate 3","Renilla reference signal, replicate 1","Renilla reference signal, replicate 2"
dl,DRSC03520,79605,51811,,3834,2037
dl,DRSC03521,1.07e5,71408,,2517,5421
uzip,DRSC04722,84592,79536,,3656,3292
CG13405,DRSC08310,1.03e5,46469,,3687,4148
Lgr3,DRSC15704,4.70e5,1.23e5,,24188,3557
Lgr3,DRSC15706,4.27e5,89189,,21284,2413
Arf1,DRSC11606,95648,1.16e5,,5142,5072
Fsn,DRSC06875,1.09e5,94305,,4313,3223
CG34276,DRSC15811,97243,95216,,1917,2812
Abcd1,DRSC17157,1.82e5,1.01e5,,3782,4148
RIOK1,DRSC09853,1.40e5,98493,,6123,4359
CG14339,DRSC00369,1.01e5,1.01e5,,2985,2544
TrpRS-m,DRSC10848,69008,68272,,3126,3336
CG7968,DRSC01903,1.22e5,61482,,3418,5601
l(1)G0004,DRSC20486,85383,89952,,2624,2560
Tgi,DRSC09793,37046,56176,52839,5488,3852
Tgi,DRSC09794,51883,47536,50453,4534,3484
ND-B17.2,DRSC00577,1.41e5,1.08e5,,3208,2697
dyl,DRSC08466,82194,47209,,4621,2593
dyl,DRSC08467,1.25e5,54304,,5376,295
swm,DRSC02012,1.53e5,7.37e5,1.16e5,6900,41130
Smn,DRSC10223,86267,39024,,3173,1328
CG43658,DRSC19455,62411,3.20e5,,1995,10249
CG43658,DRSC20111,66518,2.71e5,,1765,9849
CG6834,DRSC16125,70626,1.13e5,,2493,3171
neur + asRNA:CR31429,DRSC17013,97317,98938,,3628,3687
CG12942,DRSC06253,58152,59032,,2283,2141
Targ,DRSC06206,79090,27163,,2387,2586
Pus7,DRSC10703,22322,56864,,2557,4129
CG34195,DRSC06909,84102,41659,,2357,2893
Rcd2,DRSC11756,1.25e5,87861,,4070,2470
Tsp42Eo,DRSC06184,47275,35859,,1446,3568
stac,DRSC13693,63687,1.61e5,,15416,2172
stac,DRSC14392,4.12e5,84225,,20940,2688
CG10211,DRSC02027,93175,52731,,2424,2715
Mics1,DRSC12537,1.00e5,1.70e5,,3236,5068
CG6094,DRSC02927,1.23e5,1.79e5,,5280,6310
CG1737,DRSC19771,5.84e5,1.10e5,,2981,2981
CG43707,DRSC00280,2.07e5,74243,,4716,7771
ham,DRSC01657,1.47e5,3.39e5,,3716,14762
ham,DRSC02070,74449,60288,,1736,5453
ham,DRSC02512,1.51e5,93041,,4320,8477
ham,DRSC02513,1.16e5,76899,,2339,7061
Sbf,DRSC16852,1.25e5,79211,,4578,3024
prd1,DRSC15227,1.04e5,95333,,3138,2855
CG8892,DRSC03121,76722,82437,,3873,3353
l(2)SH0834,DRSC02854,69352,34557,,2361,4096
CG11878,DRSC14422,4.39e5,84677,,24724,2608
Mipp2,DRSC18682,79650,71821,,1831,1744
Ranbp16 + Lcch3,DRSC20257,1.04e5,97136,,2019,2044
Lerp,DRSC14750,97266,85410,,3622,2618
Lerp,DRSC14751,1.25e5,1.41e5,,4709,4320
Lerp,DRSC16030,1.10e5,1.14e5,,4032,3408
Lerp,DRSC16031,96738,1.01e5,,4012,2960
Gs1,DRSC00753,1.65e5,1.03e5,,5178,3965
Pxn,DRSC08685,2.34e5,1.52e5,,8582,6200
CG14434,DRSC17927,72695,1.50e5,,3236,5664

5 entries from above, ordered by “Renilla reference signal, replicate 1”, low to high.
Gene,dsRNA,"firefly Hh reporter signal, replicate 1","firefly Hh reporter signal, replicate 2","firefly Hh reporter signal, replicate 3","Renilla reference signal, replicate 1","Renilla reference signal, replicate 2"
Tsp42Eo,DRSC06184,47275,35859,,1446,3568
CG10211,DRSC02027,93175,52731,,2424,2715
Rcd2,DRSC11756,1.25e5,87861,,4070,2470
stac,DRSC13693,63687,1.61e5,,15416,2172
stac,DRSC14392,4.12e5,84225,,20940,2688
